Results reported in PubChem BioAssay AID248 (DTP/NCI, 2004).
The list does not hold the whole screen: it is rich in T/C values a quarter to a half above the control, in often repeated tests (any T/C) and in doses without a T/C. Further doses and runs are listed elsewhere. T/C gives the treated animals as a percentage of the vehicle group. Some entries give survivors of the animals treated and no T/C: the source holds a T/C of zero for them, seemingly a mark for toxic or unscored doses. Some doses without a T/C left all or most animals alive at the check, yet need not have been tolerated: survival well below the control is almost never listed, so the zero probably covers shortened survival too. Counts of survivors are from the toxicity check (mostly the fifth day) where no day follows; animals may have died later. Schedule codes are those of the source, read here as Q, the interval in days (D) or hours (H), X, the number of doses.

System: L1210 leukemia ip in BDF1 mice, survival T/C
Assay: NCI In Vivo Anticancer Drug Screen. Data for tumor model L1210 Leukemia (intraperitoneal) in B6D2F1 (BDF1) mice
Conditions: T/C endpoint: mean survival time, higher T/C = longer survival
[1] = dose: 400.0 mg/kg/injection, schedule: Q01DX001 (ip), vehicle: carboxymethylcellulose (CMC)
[2] = dose: 200.0 mg/kg/injection, schedule: Q01DX009 (ip), vehicle: other

OC1(c2cccc(C(F)(F)F)c2)CCN(C2CC2)CC1
survivor count (dose: 100.0 mg/kg/injection, schedule: Q04DX003 (ip), vehicle: Klucel (hydroxypropylcellulose) (HPC)): 0 of 6 | survivor count (dose: 200.0 mg/kg/injection, schedule: Q04DX003 (ip), vehicle: Klucel (hydroxypropylcellulose) (HPC)): 0 of 6 | survivor count (dose: 400.0 mg/kg/injection, schedule: Q04DX003 (ip), vehicle: Klucel (hydroxypropylcellulose) (HPC)): 0 of 6

O=C(COc1cccc(Cl)c1)NCc1ccc(NC(=O)CBr)cc1
survivor count (dose: 100.0 mg/kg/injection, schedule: Q01DX001 (ip), vehicle: gum acacia): 6 of 6

CCC1N(C)CCCN1C
survivor count (dose: 400.0 mg/kg/injection, schedule: Q04DX003 (ip), vehicle: saline with Tween-80): 0 of 6

CCCC[P+](CC(C)(C)c1ccc(C)cc1)(c1ccccc1)c1ccccc1
survivor count (dose: 25.0 mg/kg/injection, schedule: Q04DX002 (ip), vehicle: saline with Tween-80): 3 of 3 | survivor count (dose: 50.0 mg/kg/injection, schedule: Q04DX002 (ip), vehicle: saline with Tween-80): 3 of 3 | survivor count (dose: 200.0 mg/kg/injection, schedule: Q04DX002 (ip), vehicle: saline with Tween-80): 0 of 3

CN(C)CCCCCCN(C)C (tested in a mixture with another compound)
survivor count (dose: 75.0 mg/kg/injection, schedule: Q01DX001 (ip), vehicle: saline): 1 of 6 | survivor count (dose: 150.0 mg/kg/injection, schedule: Q01DX001 (ip), vehicle: saline): 0 of 6 | survivor count (dose: 300.0 mg/kg/injection, schedule: Q01DX001 (ip), vehicle: saline): 0 of 6

CCC[As](=O)(O)CCC
survivor count (dose: 100.0 mg/kg/injection, schedule: Q01DX009 (ip), vehicle: saline): 3 of 6 | survivor count (dose: 200.0 mg/kg/injection, schedule: Q04DX003 (ip), vehicle: saline): 2 of 6 | survivor count (dose: 400.0 mg/kg/injection, schedule: Q04DX003 (ip), vehicle: saline): 0 of 6

CCOC(=O)C(C#N)c1ccccc1 (stereo not drawn)
survivor count (dose: 400.0 mg/kg/injection, schedule: Q01DX001 (ip), vehicle: saline): 4 of 4

O=c1[nH]nnc2c1cnn2-c1ccccc1
survivor count [1]: 1 of 4

CCNC(=S)S.[Zn+2]
survivor count (dose: 100.0 mg/kg/injection, schedule: Q01DX001 (ip), vehicle: carboxymethylcellulose (CMC)): 0 of 6 | survivor count (dose: 200.0 mg/kg/injection, schedule: Q01DX001 (ip), vehicle: carboxymethylcellulose (CMC)): 1 of 6 | survivor count [1]: 0 of 6

COc1ccc(CCCC(C)(C)O)cc1
survivor count (dose: 200.0 mg/kg/injection, schedule: Q01DX009 (ip), vehicle: saline with Tween-80): 3 of 3

C[S+]1C=Cc2ccccc2C1c1ccc(Cl)cc1 (stereo not drawn)
survivor count (dose: 50.0 mg/kg/injection, schedule: Q04DX002 (ip), vehicle: Klucel (hydroxypropylcellulose) (HPC)): 3 of 3 | survivor count (dose: 100.0 mg/kg/injection, schedule: Q04DX002 (ip), vehicle: Klucel (hydroxypropylcellulose) (HPC)): 1 of 3

NNC(=O)CNc1ccc(Br)cc1F
survivor count (dose: 400.0 mg/kg/injection, schedule: Q04DX002 (ip), vehicle: Klucel (hydroxypropylcellulose) (HPC)): 1 of 3

CC(=O)OC1CC(OC2C(O)CC(OC3C(O)CC(OC4CCC5(C)C(CCC6C5CCC5(C)C(C7=CC(=O)OC7)CCC65O)C4)OC3C)OC2C)OC(C)C1OC1OC(CO)C(O)C(O)C1O (stereo not drawn)
survivor count (dose: 20.0 mg/kg/injection, schedule: Q01DX001 (ip), vehicle: saline): 3 of 6 | survivor count (dose: 40.0 mg/kg/injection, schedule: Q01DX001 (ip), vehicle: saline): 1 of 6

CCCCN=C=NCCCC
survivor count (dose: 400.0 mg/kg/injection, schedule: Q01DX001 (ip), vehicle: Klucel (hydroxypropylcellulose) (HPC)): 4 of 6

Nc1nc(N)c2cc(NCc3ccc(Br)cc3)ccc2n1
survivor count (dose: 25.0 mg/kg/injection, schedule: Q01DX009 (ip), vehicle: saline with Tween-80): 3 of 6 | survivor count (dose: 50.0 mg/kg/injection, schedule: Q04DX003 (ip), vehicle: saline): 1 of 6 | survivor count (dose: 100.0 mg/kg/injection, schedule: Q04DX003 (ip), vehicle: saline): 0 of 6

COc1cc([N+](=O)[O-])ccc1NC(=O)C(Br)C(Br)C(=O)O (stereo not drawn)
survivor count [2]: 5 of 6 | survivor count (dose: 400.0 mg/kg/injection, schedule: Q01DX009 (ip), vehicle: other): 1 of 6

COc1nc(Cl)nc(Cl)c1Cl (tested in a mixture with another compound)
survivor count [2]: 0 of 3

C(=C(CC1CCC1)CC1CCC1)C1CCC1
survivor count (dose: 400.0 mg/kg/injection, schedule: Q04DX002 (ip), vehicle: saline with Tween-80): 3 of 3
